The results in this text go back to PMC11549337.

Sequences of proteins named here, by UniProt entry; tags and fusion partners are left off.
UniProt P58801: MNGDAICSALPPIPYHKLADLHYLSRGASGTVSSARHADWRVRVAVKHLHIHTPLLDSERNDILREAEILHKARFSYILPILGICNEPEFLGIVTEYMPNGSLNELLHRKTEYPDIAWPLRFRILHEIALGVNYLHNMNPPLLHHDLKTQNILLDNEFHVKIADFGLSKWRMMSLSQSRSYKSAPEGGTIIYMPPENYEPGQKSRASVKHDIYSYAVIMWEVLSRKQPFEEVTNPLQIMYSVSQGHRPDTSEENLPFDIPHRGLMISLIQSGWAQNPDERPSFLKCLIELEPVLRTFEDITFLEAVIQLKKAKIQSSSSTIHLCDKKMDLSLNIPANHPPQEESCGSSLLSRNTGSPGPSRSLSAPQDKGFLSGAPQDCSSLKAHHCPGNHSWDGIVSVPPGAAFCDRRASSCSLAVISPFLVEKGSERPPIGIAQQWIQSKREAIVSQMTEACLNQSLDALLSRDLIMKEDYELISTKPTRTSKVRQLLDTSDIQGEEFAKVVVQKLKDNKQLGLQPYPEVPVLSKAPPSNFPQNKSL

The experiment concerns the target T1, YOD1 (mouse (endogenous in RAW264.7 cells and BMDMs)) (UniProt Q8CB27).
T1 sequence: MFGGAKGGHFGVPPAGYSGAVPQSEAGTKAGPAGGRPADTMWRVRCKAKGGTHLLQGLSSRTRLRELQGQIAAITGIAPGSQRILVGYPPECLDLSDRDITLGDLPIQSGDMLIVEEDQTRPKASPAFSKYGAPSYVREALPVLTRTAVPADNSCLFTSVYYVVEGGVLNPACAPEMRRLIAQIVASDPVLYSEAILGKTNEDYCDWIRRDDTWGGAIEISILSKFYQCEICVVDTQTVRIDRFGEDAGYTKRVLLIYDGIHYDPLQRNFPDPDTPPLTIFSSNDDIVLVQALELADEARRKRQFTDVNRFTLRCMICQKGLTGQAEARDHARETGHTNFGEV
As to the kind of experiment: affinity purification with mass spectrometry; YOD1 and interacting proteins immunoprecipitated from RAW264.7 cells, untreated (resting) or LPS 500 ng/ml 30 min (activation); performed only once.

No constants are given. Whether binding was seen depends on the method and setting. Binding seen in cells or lysates may run through a third protein. These calls come from enrichment with a bait or labelling near it, and not all partners need be listed.

Turning to “receptor-interacting serine/threonine kinase 2 (RIPK2) (from UniProt P58801 1-539)”, the binding entry is “binds”.
